Experimental data published in PubChem BioAssay AID248 (DTP/NCI, 2004).
The list does not hold the whole screen: it is rich in T/C values a quarter to a half above the control, in often repeated tests (any T/C) and in doses without a T/C. Further doses and runs are listed elsewhere. T/C gives the treated animals as a percentage of the vehicle group. Some entries give survivors of the animals treated and no T/C: the source files T/C as zero there, which appears to mark a toxic dose or a test without result, not a measured value. Some survivor counts are full or nearly so, which does not show that the dose was tolerated: the source hardly ever lists a survival T/C far under the control, and the zero likely stands for such cases as well. Survivors were counted at the toxicity check, usually on the fifth day, unless a day is given; later deaths do not show. Schedules are NCI's codes, taken here to give the interval after Q, in days (D) or hours (H), and the number of doses after X. Some schedules carry Z or #; the key to these is not given. For survival time, the PubChem record calls one and a half times the control and up active, and a quarter to a half above the control has no call in these data; cut-offs in other NCI protocols can differ. Some doses were run more than once; their values stand side by side, smallest first.

System: L1210 leukemia ip in BDF1 mice, survival T/C
Assay: NCI In Vivo Anticancer Drug Screen. Data for tumor model L1210 Leukemia (intraperitoneal) in B6D2F1 (BDF1) mice
Conditions: T/C endpoint: mean survival time, higher T/C = longer survival
[1] = dose: 400.0 mg/kg/injection, schedule: Q01DX009 (ip), vehicle: Klucel (hydroxypropylcellulose) (HPC)
[2] = dose: 400.0 mg/kg/injection, schedule: Q01DX009 (ip), vehicle: saline with Tween-80
[3] = dose: 200.0 mg/kg/injection, schedule: Q04DX003 (ip), vehicle: saline with Tween-80
[4] = dose: 400.0 mg/kg/injection, schedule: Q04DX003 (ip), vehicle: saline with Tween-80

N#CC1(O)CN2CCC1CC2 (stereo unspecified)
survivor count (dose: 25.0 mg/kg/injection, schedule: Q04DX003 (ip), vehicle: Klucel (hydroxypropylcellulose) (HPC)): 0 of 6 | survivor count (dose: 50.0 mg/kg/injection, schedule: Q04DX003 (ip), vehicle: Klucel (hydroxypropylcellulose) (HPC)): 0 of 6 | survivor count (dose: 75.0 mg/kg/injection, schedule: Q04DX003 (ip), vehicle: Klucel (hydroxypropylcellulose) (HPC)): 0 of 6 | survivor count (dose: 150.0 mg/kg/injection, schedule: Q04DX003 (ip), vehicle: Klucel (hydroxypropylcellulose) (HPC)): 0 of 6 | survivor count (dose: 300.0 mg/kg/injection, schedule: Q04DX003 (ip), vehicle: Klucel (hydroxypropylcellulose) (HPC)): 0 of 6

NCCSC1CCCCC1
survivor count (dose: 400.0 mg/kg/injection, schedule: Q04DX002 (ip), vehicle: saline): 0 of 3

Nc1ncnc(N)c1NC(=O)c1ccc(SCc2ccccc2)cc1
survivor count (dose: 200.0 mg/kg/injection, schedule: Q01DX009 (ip), vehicle: Klucel (hydroxypropylcellulose) (HPC)): 6 of 6

Cc1ncc(C#N)n1Cc1ccccc1
survivor count [1]: 1 of 3

CC1NC(=O)COC1c1ccccc1 (stereo unspecified)
survivor count [1]: 0 of 6

c1ccc(NN(CN(Nc2ccccc2)c2ccccc2)c2ccccc2)cc1
survivor count (dose: 200.0 mg/kg/injection, schedule: Q01DX001 (ip), vehicle: other): 6 of 6

CS(=O)(=O)OCCCN(CCCOS(C)(=O)=O)c1ccc(C=Nc2ccc(-c3csc(COc4ccc(Br)cc4)n3)cc2)cc1
survivor count [2]: 5 of 6

CCN(C(C)C)C(C)C
survivor count [3]: 0 of 6 | survivor count [4]: 0 of 6

Cc1ccc(CCC(=O)O)c2ccccc12
survivor count (dose: 400.0 mg/kg/injection, schedule: Q04DX002 (ip), vehicle: Klucel (hydroxypropylcellulose) (HPC)): 2 of 3

C=CCNc1ccc(C)cc1
survivor count (dose: 200.0 mg/kg/injection, schedule: Q01DX009 (ip), vehicle: other): 1 of 6 | survivor count (dose: 400.0 mg/kg/injection, schedule: Q04DX003 (ip), vehicle: other): 3 of 6

N#Cc1cccc[n+]1Cc1ccc([N+](=O)[O-])cc1
survivor count [3]: 6 of 6 | survivor count [4]: 5 of 6

O=C(OCC1OC(n2cnc3c(=S)nc[nH]c32)C(OC(=O)c2ccccc2)C1OC(=O)c1ccccc1)c1ccccc1 (stereo unspecified)
T/C (dose: 50.0 mg/kg/injection, schedule: Q01DX009 (ip), vehicle: saline): 126 % of control | T/C (dose: 59.0 mg/kg/injection, schedule: Q01DX Z (ip), vehicle: carboxymethylcellulose (CMC)): 127 % of control | T/C (dose: 85.0 mg/kg/injection, schedule: Q01DX009 (ip), vehicle: saline): 143 % of control | T/C (dose: 88.0 mg/kg/injection, schedule: Q01DX Z (ip), vehicle: carboxymethylcellulose (CMC)): 127 % of control | T/C (dose: 100.0 mg/kg/injection, schedule: Q01DX Z (ip), vehicle: saline): 132 % of control | T/C (dose: 134.0 mg/kg/injection, schedule: Q01DX Z (ip), vehicle: carboxymethylcellulose (CMC)): 125 and 145 % of control | T/C (dose: 150.0 mg/kg/injection, schedule: Q01DX Z (ip), vehicle: saline): 132 % of control | T/C (dose: 175.0 mg/kg/injection, schedule: Q01DX001 (ip), vehicle: saline): 145 % of control | T/C (dose: 175.0 mg/kg/injection, schedule: Q01DX009 (ip), vehicle: saline): 143 % of control | T/C (dose: 200.0 mg/kg/injection, schedule: Q01DX Z (ip), vehicle: carboxymethylcellulose (CMC)): 131 and 137 % of control | T/C (dose: 200.0 mg/kg/injection, schedule: Q01DX Z (ip), vehicle: methylcellulose (MC)): 146 % of control | T/C (dose: 265.0 mg/kg/injection, schedule: Q01DX001 (ip), vehicle: saline): 128 % of control | survivor count (dose: 333.0 mg/kg/injection, schedule: Q01DX Z (ip), vehicle: saline): 6 of 6 | T/C (dose: 400.0 mg/kg/injection, schedule: Q01DX001 (ip), vehicle: saline): 136 % of control | T/C (dose: 443.0 mg/kg/injection, schedule: Q01DX Z (ip), vehicle: carboxymethylcellulose (CMC)): 128 % of control | survivor count (dose: 675.0 mg/kg/injection, schedule: Q01DX Z (ip), vehicle: methylcellulose (MC)): 6 of 6

Cc1cc(C(=O)O)ccc1S(=O)(=O)F
survivor count (dose: 200.0 mg/kg/injection, schedule: Q01DX009 (ip), vehicle: saline with Tween-80): 3 of 6 | survivor count [2]: 3 of 6
